# In paper PMC7819943, “Rice protein-binding microarrays: a tool to detect cis-acting elements near promoter regions in rice”:
# The list shows a part of the results.
# Molecular target: T1, OsSMF1 (Oryza sativa, UniProt Q6ZLB0 1-436)
# T1 sequence: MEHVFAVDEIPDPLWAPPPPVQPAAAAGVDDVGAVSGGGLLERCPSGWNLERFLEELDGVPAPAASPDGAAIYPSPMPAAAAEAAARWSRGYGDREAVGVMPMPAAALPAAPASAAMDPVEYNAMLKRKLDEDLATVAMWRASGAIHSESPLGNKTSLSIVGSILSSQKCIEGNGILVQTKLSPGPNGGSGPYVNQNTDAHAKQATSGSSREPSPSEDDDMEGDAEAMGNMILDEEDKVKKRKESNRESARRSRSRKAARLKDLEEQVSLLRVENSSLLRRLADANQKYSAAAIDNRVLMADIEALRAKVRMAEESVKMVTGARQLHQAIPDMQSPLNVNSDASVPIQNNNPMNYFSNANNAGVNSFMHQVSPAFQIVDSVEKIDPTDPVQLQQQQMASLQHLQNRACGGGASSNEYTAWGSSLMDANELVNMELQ
# Test: protein-binding microarray (RPBM); PBS, 2% BSA, 51.3 ng/ul salmon testes DNA, 50 uM zinc acetate, 200 nM TF, 25 C, 1 h; high values mean tight binding
# Settings: protein: recombinant; tags: N-terminal polyhistidine and DsRed monomer fusion (pET32a); chain copies: 2; label: CyDye5-dUTP incorporated in the synthesized complementary strand; 3' TTTTT single-stranded linker to array surface; dsDNA, one strand shown
# Summary of the method: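 The binding signal is fluorescence intensity per array feature (arbitrary units). Readings came from an Axon 4000B scanner after a washed, 2% BSA-blocked, double-stranded custom Agilent array had been incubated for 1 h at 25 °C with 200 nM protein and 50 µM zinc acetate. The protein was a Ni–NTA-purified transcription factor fused N-terminally to polyhistidine and DsRed, expressed in E. coli BL21-CodonPlus.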
row,Sequence,binding signal
1,GGGCTACCACGTGGACACCACGTCAGCAAATACTGCCAATCGGAGTCACCTAGTGCAG,16800 fluorescence intensity (a.u.)
2,AAAGGAGAAGGCAACCTGCCTTGACTGTTGCTCCGCTGCCCGGAGTCACCTAGTGCAG,22400 fluorescence intensity (a.u.)
3,ATTCCTCTCACTGCGTCATGGCTTGGCGTCTCTCCTTCCTCGGAGTCACCTAGTGCAG,6610 fluorescence intensity (a.u.)
4,CATGCTCATGAGGACCTGGAATCCTGATGACGTTGTACAGCGGAGTCACCTAGTGCAG,6550 fluorescence intensity (a.u.)
5,GTCTGCCACGGGTTCCTCGTCTCTTCCTCTCCATTTCTACCGGAGTCACCTAGTGCAG,3640 fluorescence intensity (a.u.)
6,CCACCCCACCCCACGCTCCCCTCCTCCGCGGGCTTGGCATCGGAGTCACCTAGTGCAG,3150 fluorescence intensity (a.u.)
7,AATTCCATCCTGCCCAACTATTCACAACGTGTGTGCGTGGCGGAGTCACCTAGTGCAG,3540 fluorescence intensity (a.u.)
8,AAATAATTGAGGTCAGCGTCACGTATAGCAGCGGTAGCTTCGGAGTCACCTAGTGCAG,4170 fluorescence intensity (a.u.)
9,GGTCAATGAACGCTGCACATAAACAACAATAAATGGGTCGCGGAGTCACCTAGTGCAG,29400 fluorescence intensity (a.u.)
10,ATCCTAGCTACGTCACTGCCTACTTGACAAAGTTACGGTACGGAGTCACCTAGTGCAG,10300 fluorescence intensity (a.u.)
11,CGTATGTATCGATTGTCAATTTGGAAATGCTGCTTTGTTGCGGAGTCACCTAGTGCAG,3380 fluorescence intensity (a.u.)
12,CTGGGCGGCTTCTGGGGCGAACCACGTCGGATTTACTGTACGGAGTCACCTAGTGCAG,7570 fluorescence intensity (a.u.)
13,ATTCCTCCATGAACGTAGCCCACCATACACCACCCCTCTCCGGAGTCACCTAGTGCAG,4620 fluorescence intensity (a.u.)
14,TAGGGACCAGGATGACACAACAGTACAAGTTTAGGGACCGCGGAGTCACCTAGTGCAG,3350 fluorescence intensity (a.u.)
15,CTCTCTCTCCCTCTCCTCTCGGGCAAGCTAGCCGGCGGGTCGGAGTCACCTAGTGCAG,3170 fluorescence intensity (a.u.)
16,GCAAAGTAACCACTACGTGGTGTTTGCTGAGGAAGTTTTCCGGAGTCACCTAGTGCAG,3760 fluorescence intensity (a.u.)
17,ACGACGACGACGACGATGAGGTGGCGCCGCCGGCTCCGCACGGAGTCACCTAGTGCAG,8670 fluorescence intensity (a.u.)
18,ACCACCACCAGTCCACCACACCCGGCTCACGTAGACCGCGCGGAGTCACCTAGTGCAG,4950 fluorescence intensity (a.u.)
19,TGGCCAATTGGGAGTGGTTGCCCATTTGCCATGTCAACGCCGGAGTCACCTAGTGCAG,6130 fluorescence intensity (a.u.)
20,GCCTCGCCTCCTCACGCGAGCCACTGCTGTCGCCGCACCACGGAGTCACCTAGTGCAG,3620 fluorescence intensity (a.u.)
21,AGCACAATGCGTGGCAGATTGAATGCCTGCGTGTCAGACTCGGAGTCACCTAGTGCAG,11800 fluorescence intensity (a.u.)
22,TTTGAATACAATTGTAATTTGAGCCATTAGTGACTGTATGCGGAGTCACCTAGTGCAG,4140 fluorescence intensity (a.u.)
23,GAGGACGGCGTTGCGTTGGCGGTTGGGCGTCTCGTCCCGTCGGAGTCACCTAGTGCAG,3320 fluorescence intensity (a.u.)
24,TAACTTATTTGGGGCATGTAATCAGTGCTGCTGGGGTATCCGGAGTCACCTAGTGCAG,25000 fluorescence intensity (a.u.)
25,GTAGATGCTTCACTTGGAGGAGAGTTGATGTTGTTGTCCACGGAGTCACCTAGTGCAG,3660 fluorescence intensity (a.u.)
26,AATAAAGTTGGGTGGTTGGGGCGCGCGATAGGAGTAAATCCGGAGTCACCTAGTGCAG,4140 fluorescence intensity (a.u.)
27,GTATCTGAACCCATCAAATACGTCACAAATTAAGGCATCCCGGAGTCACCTAGTGCAG,4220 fluorescence intensity (a.u.)

row,Sequence,binding signal
1,TAACAAATGCTTTTATTAATCATTCATCATGTGACATATCCGGAGTCACCTAGTGCAG,3210 fluorescence intensity (a.u.)
2,ACTATTGTTTGGTAGTAAAATTGATAATTAAATGACTATACGGAGTCACCTAGTGCAG,40900 fluorescence intensity (a.u.)
3,GGTCTTCAAAATACAACTTGGAATACGTGTACGTTGTTCTCGGAGTCACCTAGTGCAG,4740 fluorescence intensity (a.u.)
4,GGGAACGTCGAGCGGCGCCATCGTCACGTTGAGCACCGTGCGGAGTCACCTAGTGCAG,4750 fluorescence intensity (a.u.)
5,CATTTGCGTGCCTGATTAATCCTCTCGTCATCTCACCTCACGGAGTCACCTAGTGCAG,4550 fluorescence intensity (a.u.)
6,GCACAATCTGTCTCTAGCTAGCCCAGCAGCGTTCAGATCGCGGAGTCACCTAGTGCAG,3250 fluorescence intensity (a.u.)
7,TCTTCTGCCGCTGCTGCCACGCGCCGCCTCGACGCCGCCCCGGAGTCACCTAGTGCAG,3230 fluorescence intensity (a.u.)
8,CTGGCCCGGGGTCGGGTGCGACGCGCGGGCGGGGCGGGTGCGGAGTCACCTAGTGCAG,6090 fluorescence intensity (a.u.)
9,CGCGCTCGTCCAGAGCGTCACGCGCGTGTGCGGCGTCGACCGGAGTCACCTAGTGCAG,4330 fluorescence intensity (a.u.)
10,AGCAGAGTGATCTCTGATGGTCACGGGCCGAGAAGGGAAGCGGAGTCACCTAGTGCAG,45700 fluorescence intensity (a.u.)
11,TTTATTGTGACTTAGAACTTCAATTTTCACTTTAGTAATGCGGAGTCACCTAGTGCAG,21300 fluorescence intensity (a.u.)
12,TATAGTCTTGCATATTTCACCGTTTTGTTGTCGTCAATTTCGGAGTCACCTAGTGCAG,3990 fluorescence intensity (a.u.)
13,GGTTACTAAACTTGTTAAGGAGATGGAGTAAGTCATCATGCGGAGTCACCTAGTGCAG,3750 fluorescence intensity (a.u.)
14,CCCTTCAGCACCTGTTATGTGGTCAAGGTGACGGTCAGATCGGAGTCACCTAGTGCAG,3710 fluorescence intensity (a.u.)
15,CTTGTGCAGTGGCGGAGACCGGAGTGATCAGGCAGCCGATCGGAGTCACCTAGTGCAG,3340 fluorescence intensity (a.u.)
16,CAAAACGATGTGACCTAGTATGAATCTGGATAGATCGTATCGGAGTCACCTAGTGCAG,3740 fluorescence intensity (a.u.)
17,GCGCTGTGGTGGTGTGCATGCGTGGCGGTTAGGGTGGAGGCGGAGTCACCTAGTGCAG,8430 fluorescence intensity (a.u.)
18,AGAGTGAGAGAGATGCTGTGTCTGGTAGAGTGTCTTTTATCGGAGTCACCTAGTGCAG,3150 fluorescence intensity (a.u.)
19,ACTCCTTCGCCTTTTCCCCTTTCCACGTCAGCGACGCGCACGGAGTCACCTAGTGCAG,35800 fluorescence intensity (a.u.)
20,TTGATTTAGTCCATTTAATGAATGGTGCGTCACACTAAAACGGAGTCACCTAGTGCAG,4780 fluorescence intensity (a.u.)
21,GGACTGATTTGCCTTTGCCCTTGCCGGCGCAGTCCAACCACGGAGTCACCTAGTGCAG,3530 fluorescence intensity (a.u.)
22,CGAAAAGGAGGAAATGGCAGCACAACTCATGTCCAGTATACGGAGTCACCTAGTGCAG,3170 fluorescence intensity (a.u.)
23,TGGAAACATGATGAGAAATGCTGCGATTGTCTTCCACTAACGGAGTCACCTAGTGCAG,4360 fluorescence intensity (a.u.)
24,TTTAGGCCTCCATCATAAAGATCATCACAACTAGCTTCACCGGAGTCACCTAGTGCAG,19500 fluorescence intensity (a.u.)
25,AATATTAAGAGTAGTTTCAACTGACATGATGCTTATCAAACGGAGTCACCTAGTGCAG,3290 fluorescence intensity (a.u.)
26,TGCGCCATTAGCGTCACATGGGGTGGGCTCTTGTACACTACGGAGTCACCTAGTGCAG,4460 fluorescence intensity (a.u.)
27,CAACATCAGGAATGTTCAGGCCATACCATGTCAGCATGTACGGAGTCACCTAGTGCAG,5460 fluorescence intensity (a.u.)

# Three entries from above in a different format:
row	Sequence	binding signal
5	CATTTGCGTGCCTGATTAATCCTCTCGTCATCTCACCTCACGGAGTCACCTAGTGCAG	4550 fluorescence intensity (a.u.)
22	CGAAAAGGAGGAAATGGCAGCACAACTCATGTCCAGTATACGGAGTCACCTAGTGCAG	3170 fluorescence intensity (a.u.)
27	CAACATCAGGAATGTTCAGGCCATACCATGTCAGCATGTACGGAGTCACCTAGTGCAG	5460 fluorescence intensity (a.u.)
